Results are given in words; binding and its absence hold for the method and conditions named. For part of these data: In cells and extracts the contact can be indirect. Some binding calls cover weakened binding; strength is not graded here.
What was measured:
[1] = target: Mre11-Rad50-Nbs1 (MRN) complex (UniProt P49959); test: co-immunoprecipitation in U2OS cells with or without IR (10 Gy)
HP1 [2] = target: HP1 (UniProt P45973); test: co-immunoprecipitation in U2OS cells
HP1 [3] = target: HP1 (UniProt P45973); test: immunoprecipitation with STK38 antibody, U2OS cells

Chains of the proteins cited; added tags and fusions are not shown. Lines headed by an entry give the natural chain unless they say otherwise; changes in a name come on top. Residues count along the entry.
UniProt P49959: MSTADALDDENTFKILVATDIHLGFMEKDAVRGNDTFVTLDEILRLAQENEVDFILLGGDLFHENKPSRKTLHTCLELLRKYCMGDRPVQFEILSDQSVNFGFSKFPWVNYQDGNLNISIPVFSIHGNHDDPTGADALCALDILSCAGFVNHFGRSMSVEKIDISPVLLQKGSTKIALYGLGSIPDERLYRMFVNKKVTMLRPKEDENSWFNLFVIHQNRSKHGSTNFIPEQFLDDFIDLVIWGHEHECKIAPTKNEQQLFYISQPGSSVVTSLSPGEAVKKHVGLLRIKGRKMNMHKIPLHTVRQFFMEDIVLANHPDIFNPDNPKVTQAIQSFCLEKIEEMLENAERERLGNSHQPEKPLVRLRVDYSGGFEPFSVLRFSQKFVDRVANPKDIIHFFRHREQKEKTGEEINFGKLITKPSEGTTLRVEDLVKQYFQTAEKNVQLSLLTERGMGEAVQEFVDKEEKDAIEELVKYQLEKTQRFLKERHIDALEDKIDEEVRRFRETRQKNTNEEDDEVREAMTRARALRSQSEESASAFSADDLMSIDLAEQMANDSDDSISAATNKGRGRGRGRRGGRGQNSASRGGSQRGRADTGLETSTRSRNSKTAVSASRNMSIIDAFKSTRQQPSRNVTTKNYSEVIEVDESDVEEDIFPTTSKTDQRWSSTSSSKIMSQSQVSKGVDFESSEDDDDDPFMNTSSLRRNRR
UniProt P45973: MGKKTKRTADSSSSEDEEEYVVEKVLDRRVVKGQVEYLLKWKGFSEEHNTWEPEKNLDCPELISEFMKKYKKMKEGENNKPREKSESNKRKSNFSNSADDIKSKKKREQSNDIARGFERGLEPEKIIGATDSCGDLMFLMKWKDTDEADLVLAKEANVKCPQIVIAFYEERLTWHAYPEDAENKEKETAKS
UniProt O94874, residues 2-794: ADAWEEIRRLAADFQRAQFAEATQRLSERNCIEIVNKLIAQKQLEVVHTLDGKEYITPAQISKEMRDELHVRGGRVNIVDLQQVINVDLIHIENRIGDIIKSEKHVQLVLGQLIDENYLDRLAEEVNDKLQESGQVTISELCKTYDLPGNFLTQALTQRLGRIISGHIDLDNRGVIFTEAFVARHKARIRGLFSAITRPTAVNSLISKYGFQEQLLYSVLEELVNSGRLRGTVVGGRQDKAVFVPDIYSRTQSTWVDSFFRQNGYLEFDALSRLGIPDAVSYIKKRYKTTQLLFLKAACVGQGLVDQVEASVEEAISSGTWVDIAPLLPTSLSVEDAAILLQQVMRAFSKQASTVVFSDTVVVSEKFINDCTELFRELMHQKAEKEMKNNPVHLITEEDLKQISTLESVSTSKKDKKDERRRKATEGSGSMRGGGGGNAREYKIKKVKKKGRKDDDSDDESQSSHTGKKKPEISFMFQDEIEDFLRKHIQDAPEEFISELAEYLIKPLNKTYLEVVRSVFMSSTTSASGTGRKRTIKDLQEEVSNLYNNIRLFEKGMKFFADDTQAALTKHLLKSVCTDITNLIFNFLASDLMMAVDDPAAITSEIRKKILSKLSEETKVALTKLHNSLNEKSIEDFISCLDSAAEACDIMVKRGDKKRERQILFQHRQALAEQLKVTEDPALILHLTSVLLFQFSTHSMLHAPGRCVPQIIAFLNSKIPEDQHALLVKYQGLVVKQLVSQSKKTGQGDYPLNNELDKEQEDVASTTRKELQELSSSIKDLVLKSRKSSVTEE
UniProt Q15208, residues 2-465: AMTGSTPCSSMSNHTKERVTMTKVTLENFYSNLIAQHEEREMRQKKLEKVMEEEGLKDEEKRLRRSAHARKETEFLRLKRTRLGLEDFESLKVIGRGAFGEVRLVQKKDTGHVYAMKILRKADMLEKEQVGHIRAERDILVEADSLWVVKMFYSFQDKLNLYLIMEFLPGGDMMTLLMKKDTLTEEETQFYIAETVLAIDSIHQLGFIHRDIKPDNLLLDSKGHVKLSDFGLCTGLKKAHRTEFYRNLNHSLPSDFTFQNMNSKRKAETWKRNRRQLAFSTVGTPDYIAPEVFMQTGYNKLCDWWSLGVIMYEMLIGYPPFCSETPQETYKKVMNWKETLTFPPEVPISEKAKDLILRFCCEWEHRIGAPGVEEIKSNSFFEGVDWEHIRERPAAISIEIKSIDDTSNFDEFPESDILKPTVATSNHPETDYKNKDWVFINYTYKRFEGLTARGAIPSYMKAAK

binding [1]	binding (HP1 [2])	binding (HP1 [3])	Substance
binds			UFM1 specific ligase 1 (UFL1) (from UniProt O94874 2-794) (enzyme)
	binds	binds	serine/threonine kinase 38 (STK38) (from UniProt Q15208 2-465) (enzyme)

— US20190330638A1
